Measurements: patent publication US20140096274A1 (published 2014)
Substitutions are numbered along the chain they refer to. No constants are given. Whether binding was seen depends on the method and setting. Some results given as binding are weak or reduced against the parent protein; the word gives no strength. Tags and fused reporters may be left off the sequences shown.

Tests used:
human OPG-Fc (human) [1] = biological target: T1, human OPG-Fc (human) (UniProt O00300); assay: SPR, OPG directly immobilized on CM5 chip, RANKL 4 nM-31.25 pM
T1 sequence (looked up): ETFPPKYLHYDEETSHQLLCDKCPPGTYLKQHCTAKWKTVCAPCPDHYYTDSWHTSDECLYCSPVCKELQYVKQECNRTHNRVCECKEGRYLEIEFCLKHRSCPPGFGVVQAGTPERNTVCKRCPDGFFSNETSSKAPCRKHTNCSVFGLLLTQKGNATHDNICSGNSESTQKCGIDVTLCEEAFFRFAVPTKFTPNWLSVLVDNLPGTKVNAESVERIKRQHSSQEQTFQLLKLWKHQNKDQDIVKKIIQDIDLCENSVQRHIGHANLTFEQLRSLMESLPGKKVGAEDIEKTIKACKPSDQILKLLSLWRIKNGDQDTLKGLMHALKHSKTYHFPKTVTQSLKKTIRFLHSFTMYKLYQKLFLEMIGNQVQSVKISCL

human OPG-Fc (human) [2] = biological target: T1, human OPG-Fc (human); assay: ELISA, wells coated with hOPG-Fc, concentration range of RANKL (axis printed [OPG] (nM))
murine OPG-Fc (mouse) [3] = biological target: T2, murine OPG-Fc (mouse) (UniProt O08712); assay: ELISA, immobilized murine OPG-Fc, % binding normalised to the highest concentration
T2 sequence (looked up): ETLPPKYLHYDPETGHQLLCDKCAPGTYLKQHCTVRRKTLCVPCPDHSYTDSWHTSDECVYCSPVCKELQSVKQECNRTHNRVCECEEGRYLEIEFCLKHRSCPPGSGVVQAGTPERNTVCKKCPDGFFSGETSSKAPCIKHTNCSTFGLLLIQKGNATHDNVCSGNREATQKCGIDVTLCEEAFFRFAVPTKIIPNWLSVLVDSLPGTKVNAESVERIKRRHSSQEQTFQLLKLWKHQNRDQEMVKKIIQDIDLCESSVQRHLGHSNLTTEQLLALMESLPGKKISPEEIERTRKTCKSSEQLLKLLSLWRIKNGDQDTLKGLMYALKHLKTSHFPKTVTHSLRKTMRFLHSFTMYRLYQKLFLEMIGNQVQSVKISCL

human OPG-Fc (human) [4] = biological target: T1, human OPG-Fc (human); assay: SPR, hOPG-Fc immobilized on CM5 chip, 25 C
human OPG-Fc (human) [5] = biological target: T1, human OPG-Fc (human); assay: SPR, hOPG-Fc directly immobilized on a CM5 chip, 25 C
murine RANK-Fc [6] = biological target: T3, murine RANK-Fc (mouse, UniProt O35305 31-214); assay: SPR, mRANK-Fc captured at high density (1880 RU), injection 0-180 s, dissociation to 650 s
T3 construct: also called mRANK-Fc; mRANK-FC; not shown: Fc part of the bought fusion; not described
T3 sequence (looked up): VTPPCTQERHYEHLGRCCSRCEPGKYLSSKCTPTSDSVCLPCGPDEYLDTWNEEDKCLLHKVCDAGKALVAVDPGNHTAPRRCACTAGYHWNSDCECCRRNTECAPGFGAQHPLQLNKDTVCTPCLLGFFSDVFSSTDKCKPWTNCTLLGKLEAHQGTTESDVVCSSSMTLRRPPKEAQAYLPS

human RANK-Fc [7] = biological target: T4, human RANK-Fc (human, UniProt Q9Y6Q6 30-212); assay: SPR single cycle kinetics, hRANK-Fc captured at 20-40 RU, five injections from about 0.3 to 15 nM, 600 s dissociation
T4 construct: also called hRANK-Fc; hRANK-FC; not shown: Fc part of the bought fusion; not described
T4 sequence (looked up): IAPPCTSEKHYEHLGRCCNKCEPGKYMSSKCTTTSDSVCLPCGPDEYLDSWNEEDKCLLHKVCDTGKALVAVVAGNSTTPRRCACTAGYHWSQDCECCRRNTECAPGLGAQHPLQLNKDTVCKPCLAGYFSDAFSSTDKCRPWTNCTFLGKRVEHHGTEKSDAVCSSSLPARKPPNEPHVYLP

murine RANK-Fc [8] = biological target: T3, murine RANK-Fc; assay: SPR single cycle kinetics, mRANK-Fc captured at 20-40 RU, five injections from about 0.3 to 15 nM, 600 s dissociation
murine RANK-Fc [9] = biological target: T3, murine RANK-Fc; assay: SPR, mRANK-Fc captured at very low density (7.5 RU), injection 0-180 s, dissociation to 650 s
human RANK-Fc [10] = biological target: T4, human RANK-Fc; assay: SPR single cycle kinetics
murine RANK-Fc [11] = biological target: T3, murine RANK-Fc; assay: SPR single cycle kinetics
murine RANK-Fc [12] = biological target: T3, murine RANK-Fc; assay: competitive ELISA, RANK-Fc coated wells, flag-mRANKL detected with anti-flag antibody, fixed concentrations of mD2 as competitor
murine RANK-Fc [13] = biological target: T3, murine RANK-Fc; assay: ELISA, immobilized mRANK-Fc, flag-mRANKL WT detected with anti-flag antibody, fixed concentrations of mD2 as competitor
murine RANK-Fc [14] = biological target: T3, murine RANK-Fc; assay: SPR, mRANK-Fc at low density
murine RANK-Fc [15] = biological target: T3, murine RANK-Fc; assay: SPR, whole cycle: capture of RANK-Fc at high density, injection of RANKL, regeneration; arrows mark the response expected for 1:1, 1:2, 1:3 stoichiometry
human OPG-Fc (human) [16] = biological target: T1, human OPG-Fc (human); assay: SPR, hOPG-Fc directly immobilized on a CM5 chip, 25 C [contd.]
murine OPG-Fc (mouse) [17] = biological target: T2, murine OPG-Fc (mouse); assay: ELISA, immobilized murine OPG-Fc
human OPG-Fc (human) [18] = biological target: T1, human OPG-Fc (human); assay: ELISA, wells coated with hOPG-FC

Measured: binding

B1: trimeric murine wild-type RANKL (R&D systems) (ligand, mouse, UniProt O35235 158-316, looked up)
chain: KPEAQPFAHLTINAASIPSGSHKVTLSSWYHDRGWAKISNMTLSNGKLRVNQDGFYYLYANICFRHHETSGSVPTDYLQLMVYVVKTSIKIPSSHNLMKGGSTKNWSGNSEFHFYSINVGGFFKLRAGEEISIQVSNPSLLDPDQDATYFGAFKVQDID
notes: Bought soluble trimeric protein; also called murine RANKL wt; mRANKL WT
binds: human OPG-Fc (human) [1] | human OPG-Fc (human) [2] | murine OPG-Fc (mouse) [3] | human OPG-Fc (human) [4] | human OPG-Fc (human) [5]

B2: murine flagRANKL WT (wild-type mRANKL containing an N-terminal flagtag) (ligand, mouse, UniProt O35235 160-316, looked up)
chain: EAQPFAHLTINAASIPSGSHKVTLSSWYHDRGWAKISNMTLSNGKLRVNQDGFYYLYANICFRHHETSGSVPTDYLQLMVYVVKTSIKIPSSHNLMKGGSTKNWSGNSEFHFYSINVGGFFKLRAGEEISIQVSNPSLLDPDQDATYFGAFKVQDID
notes: Trimeric; also called flag-mRANKL WT; mWT; not shown: N-terminal flagtag
binds: murine RANK-Fc [6] | human RANK-Fc [7] | murine RANK-Fc [8] | murine RANK-Fc [9] | human RANK-Fc [10] | murine RANK-Fc [11] | murine RANK-Fc [12] | murine RANK-Fc [13] | murine RANK-Fc [14] | murine RANK-Fc [15]

B3: murine RANKL heterodimeric variant mD1 (mouse Dimer 1) (ligand)
chain 1: B2 chain with K35D, C61S, F112Y
chain 2: B2 chain with F53Y, K97D, F120Y
notes: range 160-316; Heterodimer of monomer A (His-tagged) and monomer B, co-expressed in E. coli; also called RANKL dimer 1; RANK-L Dimer 1; not shown: hexahistidine-tag fused to monomer A
binds: human OPG-Fc (human) [1] | human OPG-Fc (human) [2] | human OPG-Fc (human) [16] | murine OPG-Fc (mouse) [3] | human OPG-Fc (human) [4] | murine OPG-Fc (mouse) [17] | human OPG-Fc (human) [18]

B4: murine RANKL heterodimeric variant mD2 (mouse Dimer 2) (ligand)
chain 1: B2 chain with T9V, C61S, S70K, F112Y
chain 2: B2 chain with T9V, F53Y, S70K, K97D, F120Y
notes: range 160-316; Heterodimer of monomer A (His-tagged) and monomer B, co-expressed in E. coli; also called RANKL dimer 2; dRANKL D2; not shown: hexahistidine-tag fused to monomer A
binds: human OPG-Fc (human) [1] | human OPG-Fc (human) [2] | human OPG-Fc (human) [16] | murine OPG-Fc (mouse) [3] | human OPG-Fc (human) [4] | murine OPG-Fc (mouse) [17] | human OPG-Fc (human) [18]
